Test results published in paper PMC9254885.
These are yes or no findings as the source states them, for the method shown. In cells and extracts the contact can be indirect. Some entries that bind do so weakly or less than the wild type. Where a sequence is shown, tags or fusion partners need not be part of it.

Target: T1, FLAG-tagged CPS1 (carbamoyl phosphate synthetase 1) (human) (UniProt P31327)
T1 sequence: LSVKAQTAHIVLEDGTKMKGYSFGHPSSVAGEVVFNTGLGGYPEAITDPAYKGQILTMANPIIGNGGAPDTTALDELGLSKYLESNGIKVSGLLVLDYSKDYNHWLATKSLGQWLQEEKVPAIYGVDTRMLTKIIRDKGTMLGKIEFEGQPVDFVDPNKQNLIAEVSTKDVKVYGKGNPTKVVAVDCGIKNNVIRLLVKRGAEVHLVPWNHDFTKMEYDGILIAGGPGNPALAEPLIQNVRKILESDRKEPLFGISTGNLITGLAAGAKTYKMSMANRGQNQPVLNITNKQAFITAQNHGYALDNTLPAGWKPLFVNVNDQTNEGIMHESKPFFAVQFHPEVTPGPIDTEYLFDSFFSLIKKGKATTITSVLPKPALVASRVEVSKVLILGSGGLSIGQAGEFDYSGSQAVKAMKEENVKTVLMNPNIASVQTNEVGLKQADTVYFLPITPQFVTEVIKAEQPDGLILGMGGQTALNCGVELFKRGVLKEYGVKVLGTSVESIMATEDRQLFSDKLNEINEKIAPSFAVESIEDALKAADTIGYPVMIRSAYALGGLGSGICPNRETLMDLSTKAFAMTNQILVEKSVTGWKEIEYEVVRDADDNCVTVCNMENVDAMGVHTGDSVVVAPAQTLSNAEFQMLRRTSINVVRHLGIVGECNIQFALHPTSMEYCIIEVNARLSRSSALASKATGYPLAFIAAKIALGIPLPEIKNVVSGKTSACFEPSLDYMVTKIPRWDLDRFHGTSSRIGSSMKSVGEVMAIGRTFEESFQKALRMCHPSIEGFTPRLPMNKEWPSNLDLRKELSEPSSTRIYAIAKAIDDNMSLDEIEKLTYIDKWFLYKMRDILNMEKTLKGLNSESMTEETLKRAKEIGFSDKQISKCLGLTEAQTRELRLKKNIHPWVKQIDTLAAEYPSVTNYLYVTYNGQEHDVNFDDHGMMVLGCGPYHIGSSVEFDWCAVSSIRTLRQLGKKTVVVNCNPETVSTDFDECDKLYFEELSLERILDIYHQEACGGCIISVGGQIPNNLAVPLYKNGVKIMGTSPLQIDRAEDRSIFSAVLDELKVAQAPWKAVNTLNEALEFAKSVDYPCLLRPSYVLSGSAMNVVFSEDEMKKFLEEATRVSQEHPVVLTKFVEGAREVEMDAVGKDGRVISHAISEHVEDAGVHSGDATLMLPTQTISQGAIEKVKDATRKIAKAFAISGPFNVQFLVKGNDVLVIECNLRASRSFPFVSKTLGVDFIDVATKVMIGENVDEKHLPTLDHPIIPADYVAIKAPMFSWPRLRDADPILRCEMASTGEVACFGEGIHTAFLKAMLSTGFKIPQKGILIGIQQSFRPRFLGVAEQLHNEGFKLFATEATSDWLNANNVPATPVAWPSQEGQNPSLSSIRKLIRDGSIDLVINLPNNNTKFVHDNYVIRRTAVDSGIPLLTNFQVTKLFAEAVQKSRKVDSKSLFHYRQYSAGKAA
Assay: co-IP; 293T cells transfected with Myc-tagged OGT and/or FLAG-tagged CPS1; co-IP with anti-Myc and anti-FLAG antibody

binding: binds
B1: Myc-tagged OGT (O-GlcNAc transferase), wild type (enzyme, UniProt O15294 1-1046)
chain: MASSVGNVADSTEPTKRMLSFQGLAELAHREYQAGDFEAAERHCMQLWRQEPDNTGVLLLLSSIHFQCRRLDRSAHFSTLAIKQNPLLAEAYSNLGNVYKERGQLQEAIEHYRHALRLKPDFIDGYINLAAALVAAGDMEGAVQAYVSALQYNPDLYCVRSDLGNLLKALGRLEEAKACYLKAIETQPNFAVAWSNLGCVFNAQGEIWLAIHHFEKAVTLDPNFLDAYINLGNVLKEARIFDRAVAAYLRALSLSPNHAVVHGNLACVYYEQGLIDLAIDTYRRAIELQPHFPDAYCNLANALKEKGSVAEAEDCYNTALRLCPTHADSLNNLANIKREQGNIEEAVRLYRKALEVFPEFAAAHSNLASVLQQQGKLQEALMHYKEAIRISPTFADAYSNMGNTLKEMQDVQGALQCYTRAIQINPAFADAHSNLASIHKDSGNIPEAIASYRTALKLKPDFPDAYCNLAHCLQIVCDWTDYDERMKKLVSIVADQLEKNRLPSVHPHHSMLYPLSHGFRKAIAERHGNLCLDKINVLHKPPYEHPKDLKLSDGRLRVGYVSSDFGNHPTSHLMQSIPGMHNPDKFEVFCYALSPDDGTNFRVKVMAEANHFIDLSQIPCNGKAADRIHQDGIHILVNMNGYTKGARNELFALRPAPIQAMWLGYPGTSGALFMDYIITDQETSPAEVAEQYSEKLAYMPHTFFIGDHANMFPHLKKKAVIDFKSNGHIYDNRIVLNGIDLKAFLDSLPDVKIVKMKCPDGGDNADSSNTALNMPVIPMNTIAEAVIEMINRGQIQITINGFSISNGLATTQINNKAATGEEVPRTIIVTTRSQYGLPEDAIVYCNFNQLYKIDPSTLQMWANILKRVPNSVLWLLRFPAVGEPNIQQYAQNMGLPQNRIIFSPVAPKEEHVRRGQLADVCLDTPLCNGHTTGMDVLWAGTPMVTMPGETLASRVAASQLTCLGCLELIAKNRQEYEDIAVKLGTDLEYLKKVRGKVWKQRISSPLFNTKQYTMELERLYLQMWEHYAAGNKPDHMIKPVEVTESA
